Data reported in the supplement of paper PMC8728848.
Some of the results follow.

Legend:
Assay in all cases: glycan array binding signal (z-score within array); higher = stronger binding
Details in all cases: glycan notation: IUPAC condensed, linker removed
Kdn(a2-3)Gal(b1-3)GlcNAc = target: Kdn(a2-3)Gal(b1-3)GlcNAc
Method in brief: (§1)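 Glycan array binding is given as a within-array Z-score, which can be read as non-binding when negative. The arrays, 3228 of them, came from the Consortium for Functional Glycomics database and were retained only where the protein sequence was available. Z-scores were averaged across arrays of the same protein sequence at different concentrations or buffers and across linkers.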

Kdn(a2-3)Gal(b1-4)Glc = target: Kdn(a2-3)Gal(b1-4)Glc
Method in brief: as §1

Kdn(a2-3)Gal(b1-4)GlcNAc = target: Kdn(a2-3)Gal(b1-4)GlcNAc
Method in brief: as §1

[1] = target: Kdn(a2-3)Gal(b1-4)[Fuc(a1-3)]GlcNAc
Method in brief: as §1

Kdn(a2-6)Gal(b1-4)GlcNAc = target: Kdn(a2-6)Gal(b1-4)GlcNAc
Method in brief: as §1

[2] = target: Man(a1-2)Man(a1-2)Man(a1-3)Man
Method in brief: as §1

[3] = target: Man(a1-2)Man(a1-2)Man(a1-6)[Man(a1-3)]Man
Method in brief: as §1

Man(a1-2)Man(a1-3)Man = target: Man(a1-2)Man(a1-3)Man
Method in brief: as §1

[4] = target: Man(a1-2)Man(a1-3)[Man(a1-2)Man(a1-6)]Man
Method in brief: as §1

[5] = target: Man(a1-2)Man(a1-3)[Man(a1-2)Man(a1-6)]Man(a1-6)[Man(a1-2)Man(a1-2)Man(a1-3)]Man
Method in brief: as §1

[6] = target: Man(a1-2)Man(a1-3)[Man(a1-2)Man(a1-6)]Man(a1-6)[Man(a1-2)Man(a1-2)Man(a1-3)]Man(b1-4)GlcNAc(b1-4)GlcNAc
Method in brief: as §1

[7] = target: Man(a1-2)Man(a1-3)[Man(a1-6)]Man(a1-6)[Man(a1-2)Man(a1-3)]Man(b1-4)GlcNAc(b1-4)GlcNAc
Method in brief: as §1

[8] = target: Man(a1-2)Man(a1-6)[Man(a1-3)]Man(a1-6)[Man(a1-2)Man(a1-2)Man(a1-3)]Man
Method in brief: as §1

[9] = target: Man(a1-2)Man(a1-6)[Man(a1-3)]Man(a1-6)[Man(a1-2)Man(a1-2)Man(a1-3)]Man(b1-4)GlcNAc(b1-4)GlcNAc
Method in brief: as §1

Man(a1-3)[Man(a1-6)]Man = target: Man(a1-3)[Man(a1-6)]Man
Method in brief: as §1

[10] = target: Man(a1-3)[Man(a1-6)]Man(a1-6)[Man(a1-2)Man(a1-3)]Man(b1-4)GlcNAc(b1-4)GlcNAc
Method in brief: as §1

[11] = target: Man(a1-3)[Man(a1-6)]Man(a1-6)[Man(a1-3)]Man
Method in brief: as §1

[12] = target: Man(a1-3)[Man(a1-6)]Man(a1-6)[Man(a1-3)]Man(b1-4)GlcNAc(b1-4)GlcNAc
Method in brief: as §1

[13] = target: Man(a1-3)[Man(a1-6)]Man(b1-4)GlcNAc(b1-4)GlcNAc
Method in brief: as §1

[14] = target: Man(a1-3)[Man(a1-6)]Man(b1-4)GlcNAc(b1-4)[Fuc(a1-6)]GlcNAc
Method in brief: as §1

Man(a1-6)Man = target: Man(a1-6)Man
Method in brief: as §1

Man(b1-4)GlcNAc = target: Man(b1-4)GlcNAc
Method in brief: as §1

MurNAc(b1-4)GlcNAc = target: MurNAc(b1-4)GlcNAc
Method in brief: as §1

Neu5Ac(a2-3)Gal = target: Neu5Ac(a2-3)Gal
Method in brief: as §1

[15] = target: Neu5Ac(a2-3)Gal(b1-3)GalNAc
Method in brief: as §1

[16] = target: Neu5Ac(a2-3)Gal(b1-3)GalNAc(b1-3)Gal(a1-4)Gal(b1-4)Glc
Method in brief: as §1

[17] = target: Neu5Ac(a2-3)Gal(b1-3)GalNAc(b1-4)Gal(b1-4)Glc
Method in brief: as §1

[18] = target: Neu5Ac(a2-3)Gal(b1-3)GalNAc(b1-4)[Neu5Ac(a2-3)]Gal(b1-4)Glc
Method in brief: as §1

[19] = target: Neu5Ac(a2-3)Gal(b1-3)GalNAc(b1-4)[Neu5Ac(a2-8)Neu5Ac(a2-3)]Gal(b1-4)Glc
Method in brief: as §1

[20] = target: Neu5Ac(a2-3)Gal(b1-3)GalNAc6S
Method in brief: as §1

[21] = target: Neu5Ac(a2-3)Gal(b1-3)GlcNAc
Method in brief: as §1

[22] = target: Neu5Ac(a2-3)Gal(b1-3)GlcNAc(b1-2)Man
Method in brief: as §1

[23] = target: Neu5Ac(a2-3)Gal(b1-3)GlcNAc(b1-2)Man(a1-3)[GlcNAc(b1-4)][Neu5Ac(a2-3)Gal(b1-3)GlcNAc(b1-2)Man(a1-6)]Man(b1-4)GlcNAc(b1-4)GlcNAc
Method in brief: as §1

[24] = target: Neu5Ac(a2-3)Gal(b1-3)GlcNAc(b1-2)Man(a1-3)[Neu5Ac(a2-3)Gal(b1-3)GlcNAc(b1-2)Man(a1-6)]Man(b1-4)GlcNAc(b1-4)GlcNAc
Method in brief: as §1

[25] = target: Neu5Ac(a2-3)Gal(b1-3)GlcNAc(b1-2)[Neu5Ac(a2-3)Gal(b1-3)GlcNAc(b1-4)]Man(a1-6)[Neu5Ac(a2-3)Gal(b1-3)GlcNAc(b1-2)Man(a1-3)]Man(b1-4)GlcNAc(b1-4)GlcNAc
Method in brief: as §1

[26] = target: Neu5Ac(a2-3)Gal(b1-3)GlcNAc(b1-3)Gal(b1-3)GlcNAc
Method in brief: as §1

[27] = target: Neu5Ac(a2-3)Gal(b1-3)GlcNAc(b1-3)Gal(b1-4)GlcNAc
Method in brief: as §1

[28] = target: Neu5Ac(a2-3)Gal(b1-3)GlcNAc(b1-3)GalNAc
Method in brief: as §1

B1: SUN4 (Saccharomyces cerevisiae), P53616 (protein)
chain: MGSSHHHHHHSSGLVPRGSHNGSIYGDLADFSGPYEKFEDGTIPCGQFPSGQGVIPISWLDEGGWSGVENTDTSTGGSCKEGSYCSYACQPGMSKTQWPSDQPSDGRSIGGLLCKDGYLYRSNTDTDYLCEWGVDAAYVVSELSNDVAICRTDYPGTENMVIPTYVQAGDSLPLTVVDQDTYYTWQGLKTSAQYYVNNAGISVEDACVWGSSSSGVGNWAPLNFGAGSSDGVAYLSLIPNPNNGNALNFNVKIVAADDSSTVNGECIYENGSFSGGSDGCTVSVTAGKAKFVLYN
glycan array binding signal (z-score) (Kdn(a2-3)Gal(b1-3)GlcNAc): 0.407
glycan array binding signal (z-score) (Kdn(a2-3)Gal(b1-4)Glc): 0.11
glycan array binding signal (z-score) (Kdn(a2-3)Gal(b1-4)GlcNAc): 0.045
glycan array binding signal (z-score) [1]: -0.428
glycan array binding signal (z-score) (Kdn(a2-6)Gal(b1-4)GlcNAc): -0.189
glycan array binding signal (z-score) [2]: -0.338
glycan array binding signal (z-score) [3]: -0.614
glycan array binding signal (z-score) (Man(a1-2)Man(a1-3)Man): 0.122
glycan array binding signal (z-score) [4]: 0.065
glycan array binding signal (z-score) [5]: -0.151
glycan array binding signal (z-score) [6]: -0.27
glycan array binding signal (z-score) [7]: -0.835
glycan array binding signal (z-score) [8]: -1.24
glycan array binding signal (z-score) [9]: -0.366
glycan array binding signal (z-score) (Man(a1-3)[Man(a1-6)]Man): 1.17
glycan array binding signal (z-score) [10]: 0.369
glycan array binding signal (z-score) [11]: -0.428
glycan array binding signal (z-score) [12]: -0.239
glycan array binding signal (z-score) [13]: -0.947
glycan array binding signal (z-score) [14]: 0.484
glycan array binding signal (z-score) (Man(a1-6)Man): -1.14
glycan array binding signal (z-score) (Man(b1-4)GlcNAc): -0.588
glycan array binding signal (z-score) (MurNAc(b1-4)GlcNAc): -1.2
glycan array binding signal (z-score) (Neu5Ac(a2-3)Gal): -0.565
glycan array binding signal (z-score) [15]: -0.447
glycan array binding signal (z-score) [16]: 0.263
glycan array binding signal (z-score) [17]: -0.196
glycan array binding signal (z-score) [18]: 0.193
glycan array binding signal (z-score) [19]: -0.149
glycan array binding signal (z-score) [20]: 0.335
glycan array binding signal (z-score) [21]: 0.704
glycan array binding signal (z-score) [22]: 0.699
glycan array binding signal (z-score) [23]: -0.802
glycan array binding signal (z-score) [24]: -0.58
glycan array binding signal (z-score) [25]: 1.38
glycan array binding signal (z-score) [26]: 1.52
glycan array binding signal (z-score) [27]: -0.21
glycan array binding signal (z-score) [28]: -0.405
